{"sequences": {"note": "Chains of the proteins cited; added tags and fusions are not shown.", "UniProt Q7Z2W7, whole entry": "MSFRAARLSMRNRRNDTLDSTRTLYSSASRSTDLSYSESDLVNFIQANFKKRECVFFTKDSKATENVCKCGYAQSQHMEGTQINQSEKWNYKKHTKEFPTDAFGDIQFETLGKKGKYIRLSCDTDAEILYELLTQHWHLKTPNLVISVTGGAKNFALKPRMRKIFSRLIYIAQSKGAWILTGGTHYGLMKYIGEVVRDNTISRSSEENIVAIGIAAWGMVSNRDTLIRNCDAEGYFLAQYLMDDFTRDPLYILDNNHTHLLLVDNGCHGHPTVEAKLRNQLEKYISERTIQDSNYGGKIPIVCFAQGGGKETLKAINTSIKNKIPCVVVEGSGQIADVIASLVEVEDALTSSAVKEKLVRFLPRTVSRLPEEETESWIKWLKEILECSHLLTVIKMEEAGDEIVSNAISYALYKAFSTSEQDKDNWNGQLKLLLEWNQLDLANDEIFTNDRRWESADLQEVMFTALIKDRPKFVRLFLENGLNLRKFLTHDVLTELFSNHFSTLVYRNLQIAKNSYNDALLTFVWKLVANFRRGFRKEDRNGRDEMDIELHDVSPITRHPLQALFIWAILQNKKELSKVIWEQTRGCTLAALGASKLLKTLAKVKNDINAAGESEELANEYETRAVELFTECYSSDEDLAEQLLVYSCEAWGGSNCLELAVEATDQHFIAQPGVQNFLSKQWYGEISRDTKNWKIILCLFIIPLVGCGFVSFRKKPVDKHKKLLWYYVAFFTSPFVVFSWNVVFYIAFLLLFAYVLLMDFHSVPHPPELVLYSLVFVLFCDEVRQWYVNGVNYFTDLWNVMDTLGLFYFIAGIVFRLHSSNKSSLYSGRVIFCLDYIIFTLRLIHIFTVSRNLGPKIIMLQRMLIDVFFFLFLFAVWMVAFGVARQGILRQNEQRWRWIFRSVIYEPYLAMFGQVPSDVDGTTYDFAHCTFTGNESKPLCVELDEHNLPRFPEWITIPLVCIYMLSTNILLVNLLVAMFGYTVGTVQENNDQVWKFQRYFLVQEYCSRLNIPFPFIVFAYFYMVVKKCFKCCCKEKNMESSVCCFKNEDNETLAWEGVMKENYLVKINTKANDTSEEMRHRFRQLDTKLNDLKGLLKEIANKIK"}, "source": "patent US9585875B2", "about": "“TRPM8 antagonists” (Dompé S.P.A., priority 2011, dated 2017)", "note": "pIC50: −log10 of the molar value. Some of these results come from one statement about several compounds together."}
{"target": "TRPM8 (Homo sapiens, UniProt Q7Z2W7)", "test": "HTS cell-based Ca2+ mobilization assay (FLIPR TETRA) in HEK293/hTRPM8 cells, agonist Cooling Agent 10", "parameters": "expressed in transfected cells", "settings": "HEK293/hTRPM8, Cooling Agent 10 at EC80", "text": "A functional cell-based assay for the identification of TRPM8 receptor antagonists, optimised to allow high throughput screening at FLIPR^TETRA, was developed in HEK293 cells by stable pure clone selection and functional characterization with a fluorescent calcium sensitive dye.\nTRPM8 was cloned into the multiple cloning site of pcDNA3 mammalian expression vector; the obtained construct pcDNA3/hTRPM8 was fully sequence verified and used for the transfection of HEK293 cell line. HEK293 cells stably transfected with TRPM8 gene were maintained in Minimum essential medium. The cells were transfected with the pcDNA3/hTRPM8 vector by electroporation and then selected with medium containing 0.8 mg/ml G418 for 10-15 days.\nThe following commercial compounds were used as ligands:\nActivator: Cooling Agent 10 (Takasago CAS N. 87061-04-9)\nBlocker: Capsazepine (SIGMA cat #D_5879)\nThe experimental activities were performed using FLIPR^TETRA instruments.\nHEK293 cells stably transfected with TRPM8 gene were maintained in Minimum essential medium.\nThe TRPM8 cell line was analysed for the response to a library of compounds using a Ca^2+ mobilization-dependent fluorescence signal in 384 wells microtiter plate format. The analysis was performed using the FLIPR^TETRA (MDC) with the ICCD Camera.\nThe execution of the assay involved the use of three microtiter plates:\n1. Assay plate, containing cells loaded with dye and prepared as follows:\nCells were seeded at 15000 c/well in Poly-D-Lysine coated 384 wells Microtiter Plates in complete medium (25 μl/well).\n24 h after seeding, the cell plates were washed with Tyrode assay buffer by the Microplate Washer and 10 μL of Tyrode assay buffer was left in each well.\nCells were then loaded with 10 μL/well of the Fluo-4 NW dye solution by CyBi®-Well pipettor. Each bottle of Fluo4-NW dye (Molecular Probes cat. #F36206, component A) was re-suspended in 8 mL of Tyrode assay buffer and supplemented with 100 μL of water-soluble probenecid (MolecularProbes cat.#F36206, component B).\nDye loaded cell plates were incubated for 1 h at room temperature.\n2. Compound Dilution Plate (FIG. 1), containing diluted test compounds, formulated as follows: […]\nColumn 1: wells containing Assay Buffer plus DMSO 0.5% final\nColumns 3-22: wells containing Assay Buffer plus 0.5% DMSO final. To these wells the compounds to be tested were added at 3× concentration.\nColumn 23: alternating wells of Max Signal Control in second injection (Assay buffer) and Min Signal Control in second injection (Antagonist Capsazepine IC100, 50 μM) in Assay buffer plus 0.5% DMSO final;\nColumn 24: wells containing Capsazepine (Antagonist) at 8 concentrations in duplicate at final concentrations of 50 μM, 25 μM, 6.25 μM, 3.15 μM, 1.56 μM, 780 nM, […] in Assay buffer plus 0.5% DMSO final.\n3. Activator Plate (FIG. 2), containing agonist Cooling Agent 10 at EC80, formulated as follows:\nColumn 1: Cooling Agent 10 (Agonist) at 8 concentrations dose response in duplicate at final concentrations of 100 μM, 31.6 μM, 10 μM, 3.16 μM, 1 μM, 316 nM, 100 nM, 31.6 nM in Assay buffer;\nColumns 2-24: Cooling Agent 10 (Agonist) at EC80 (3 fold concentrated, 20 μM final) in Assay buffer.\nThe test was carried out according to a procedure comprising the following steps:\n1. The samples contained in the wells of the Compound Plate were added to the corresponding wells of the Assay Plate by the FLIPR^TETRA, thus resulting in the addition in Columns 3-22 of the test compounds at 3× concentration to the cells of the assay plates. No mixing was performed in the assay wells and the signal of the emitted fluorescence was recorded for 300 seconds. 2. The samples contained in the wells of the Activator Plate were added to the corresponding wells of the Assay Plate by the FLIPR^TETRA, thus resulting in the addition in Columns 3-22 of the Assay Plate of the agonist compound in addition to the test compounds. The signal of the emitted fluorescence was recorded for 180 seconds."}
{"molecule": "Cc1ccc(-c2nc(O)c(C(=O)O[C@@H]3C[C@H](C)CC[C@H]3C(C)C)s2)cc1", "note": "[Compound 90, (1R,2S,5R)-2-isopropyl-5-methylcyclohexyl-4-hydroxy-2-(4-methylphenyl)-1,3-thiazole-5-carboxylate]", "pIC50": "> 4.52"}
{"molecule": "CCOC(=O)c1sc(-c2ccc(Cl)cc2)nc1OCOC", "note": "[Compound 91, ethyl 2-(4-chlorophenyl)-4-(methoxymethoxy)-1,3-thiazole-5-carboxylate]", "pIC50": "> 4.52"}
{"molecule": "COCOc1nc(-c2ccc(Cl)cc2)sc1C(=O)O", "note": "[Compound 92, 2-(4-chlorophenyl)-4-(methoxymethoxy)-1,3-thiazole-5-carboxylic acid]", "pIC50": "> 4.52"}
{"molecule": "COCOc1nc(-c2ccc(Cl)cc2)sc1C(N)=O", "note": "[Compound 93, 2-(4-chlorophenyl)-4-(methoxymethoxy)-1,3-thiazole-5-carboxamide]", "pIC50": "> 4.52"}
{"molecule": "COCOc1nc(-c2ccc(Cl)cc2)sc1C#N", "note": "[Compound 94, 2-(4-chlorophenyl)-4-(methoxymethoxy)-1,3-thiazole-5-carbonitrile]", "pIC50": "> 4.52"}
{"molecule": "Oc1nc(-c2ccc(Cl)cc2)sc1-c1nnn[nH]1", "note": "[Compound 95, 2-(4-chlorophenyl)-5-(1H-tetrazol-5-yl)-1,3-thiazol-4-ol]", "pIC50": "> 4.52"}
{"molecule": "Cn1nnnc1-c1sc(-c2ccc(Cl)cc2)nc1O", "note": "[Compound 96, 2-(4-chlorophenyl)-5-(1-methyl-1H-tetrazol-5-yl)-1,3-thiazol-4-ol]", "pIC50": "> 4.52"}
{"molecule": "Cn1nnnc1-c1sc(-c2cccc(F)c2)nc1O", "note": "[Compound 97, 2-(3-fluorophenyl)-5-(1-methyl-1H-tetrazol-5-yl)-1,3-thiazol-4-ol]", "pIC50": "> 4.52"}
{"molecule": "Cc1nnc(-c2sc(-c3ccc(Cl)cc3)nc2O)[nH]1", "note": "[Compound 98, 2-(4-chlorophenyl)-5-(5-methyl-4H-1,2,4-triazol-3-yl)-1,3-thiazol-4-ol]", "pIC50": "> 4.52"}
{"molecule": "Cc1nnc(-c2sc(-c3cccc(F)c3)nc2O)[nH]1", "note": "[Compound 99, 2-(3-fluorophenyl)-5-(5-methyl-4H-1,2,4-triazol-3-yl)-1,3-thiazol-4-ol]", "pIC50": "> 4.52"}
{"molecule": "Cc1nc(-c2sc(-c3ccc(Cl)cc3)nc2O)no1", "note": "[Compound 100, 2-(4-chlorophenyl)-5-(5-methyl-1,2,4-oxadiazol-3-yl)-1,3-thiazol-4-ol]", "pIC50": "> 4.52"}
{"molecule": "Cc1nc(-c2sc(-c3cccc(F)c3)nc2O)no1", "note": "[Compound 101, 2-(3-fluorophenyl)-5-(5-methyl-1,2,4-oxadiazol-3-yl)-1,3-thiazol-4-ol]", "pIC50": "> 4.52"}
{"molecule": "Cc1nc(-c2sc(-c3cccc(F)c3)nc2OCc2ccc(Cl)cc2)no1", "note": "[Compound 102, 3-{4-[(4-chlorobenzyl)oxy]-2-(3-fluorophenyl)-1,3-thiazol-5-yl}-5-methyl-1,2,4-oxadiazole]", "pIC50": "> 4.52"}
{"molecule": "Cc1nnc(-c2sc(-c3ccc(Cl)cc3)nc2O)o1", "note": "[Compound 103, 2-(4-chlorophenyl)-5-(5-methyl-1,3,4-oxadiazol-2-yl)-1,3-thiazol-4-ol]", "pIC50": "> 4.52"}
{"molecule": "Cc1nnc(-c2sc(-c3cccc(F)c3)nc2O)o1", "note": "[Compound 104, 2-(3-fluorophenyl)-5-(5-methyl-1,3,4-oxadiazol-2-yl)-1,3-thiazol-4-ol]", "pIC50": "> 4.52"}
{"molecule": "CCOC(=O)c1oc(-c2ccccc2)nc1O", "note": "[Compound 105, ethyl 4-hydroxy-2-phenyl-1,3-oxazole-5-carboxylate]", "pIC50": "> 4.52"}
{"molecule": "CCOC(=O)c1oc(-c2cccc(F)c2)nc1O", "note": "[Compound 106, ethyl 2-(3-fluorophenyl)-4-hydroxy-1,3-oxazole-5-carboxylate]", "pIC50": "> 4.52"}
{"molecule": "CCOC(=O)c1oc(-c2ccc(C)cc2)nc1O", "note": "[Compound 107, ethyl 4-hydroxy-2-(4-methylphenyl)-1,3-oxazole-5-carboxylate]", "pIC50": "> 4.52"}
{"molecule": "CCOC(=O)c1oc(-c2ccccc2)nc1OCc1ccc(Cl)cc1", "note": "[Compound 108, ethyl 4-[(4-chlorobenzyl)oxy]-2-phenyl-1,3-oxazole-5-carboxylate]", "pIC50": "> 4.52"}
{"molecule": "CCOC(=O)c1oc(-c2cccc(F)c2)nc1OCc1ccc(Cl)cc1", "note": "[Compound 109, ethyl 4-[(4-chlorobenzyl)oxy]-2-(3-fluorophenyl)-1,3-oxazole-5-carboxylate]", "pIC50": "> 4.52"}
{"molecule": "CCOC(=O)c1oc(-c2ccc(C)cc2)nc1OCc1ccc(Cl)cc1", "note": "[Compound 110, ethyl 4-[(4-chlorobenzyl)oxy]-2-(4-methylphenyl)-1,3-oxazole-5-carboxylate]", "pIC50": "> 4.52"}
{"molecule": "CCOC(=O)c1oc(-c2ccccc2)nc1OC(=O)c1ccc(C(F)(F)F)cc1", "note": "[Compound 111, ethyl 2-phenyl-4-{[4-(trifluoromethyl)benzoyl]oxy}-1,3-oxazole-5-carboxylate]", "pIC50": "> 4.52"}
{"molecule": "O=C(O)c1oc(-c2ccccc2)nc1OCc1ccc(Cl)cc1", "note": "[Compound 112, 4-[(4-chlorobenzyl)oxy]-2-phenyl-1,3-oxazole-5-carboxylic acid]", "pIC50": "> 4.52"}
{"molecule": "O=C(O)c1oc(-c2cccc(F)c2)nc1OCc1ccc(Cl)cc1", "note": "[Compound 113, 4-[(4-chlorobenzyl)oxy]-2-(3-fluorophenyl)-1,3-oxazole-5-carboxylic acid]", "pIC50": "> 4.52"}
{"molecule": "Cc1ccc(-c2nc(OCc3ccc(Cl)cc3)c(C(=O)O)o2)cc1", "note": "[Compound 114, 4-[(4-chlorobenzyl)oxy]-2-(4-methylphenyl)-1,3-oxazole-5-carboxylic acid]", "pIC50": "> 4.52"}
{"molecule": "Cc1nc(-c2oc(-c3cccc(F)c3)nc2O)no1", "note": "[Compound 115, 2-(3-fluorophenyl)-5-(5-methyl-1,2,4-oxadiazol-3-yl)-1,3-oxazol-4-ol]", "pIC50": "> 4.52"}
{"molecule": "Cc1nc(-c2oc(-c3cccc(F)c3)nc2OCc2ccc(Cl)cc2)no1", "note": "[Compound 116, 3-{4-[(4-chlorobenzyl)oxy]-2-(3-fluorophenyl)-1,3-oxazol-5-yl}-5-methyl-1,2,4-oxadiazole]", "pIC50": "> 4.52"}
{"molecule": "ethyl 2-(3-fluorophenyl)-5-hydroxy-1,3-thiazole-4-carboxylate [Compound 117]", "pIC50": "> 4.52"}
{"test_system": "Female rats", "test": "Isovolumetric bladder model", "assay_type": "in vivo, rat", "settings": "0.3 mg/rat", "protocol": "(§1) Female rats were anesthetized with urethane. Ureters were ligated and sectioned. A catheter was inserted through the urinary meatus into the bladder before urethral ligature. […] 10 or 45 or with 100 μL of vehicle, then with 100 μL of saline every 5 min until the occurrence of rhythmic bladder contraction (RBC). A maximal volume of 3 mL was infused. The intravesical pressure was followed during 1 h30 after RBC appearance. For each group, Threshold Volume (TV), Micturition Frequency (MF) and Amplitude of Micturition (AM) were measured during the whole period. […] No effect on the total MF (measured during 90 min) was observed.", "units": {"threshold volume (bladder capacity)": "mL"}}
{"molecule": "O=C(O)c1sc(-c2ccc(Cl)cc2)nc1OCc1ccc(Cl)cc1", "note": "[Compound 45, 4-[(4-chlorobenzyl)oxy]-2-(4-chlorophenyl)-1,3-thiazole-5-carboxylic acid]", "threshold volume (bladder capacity)": "1.5 to 3.0"}
{"test_system": "Female rats", "test": "Isovolumetric bladder model", "assay_type": "in vivo, rat", "settings": "2.3 mg/rat", "protocol": "as §1", "units": {"threshold volume (bladder capacity)": "mL"}}
{"molecule": "CCOC(=O)c1sc(-c2cccc(F)c2)nc1O", "note": "[Compound 10, ethyl 2-(3-fluorophenyl)-4-hydroxy-1,3-thiazole-5-carboxylate]", "threshold volume (bladder capacity)": "1.5 to 3.0"}
